Sequences and labels used below:
T1: Mrc1-YFP (S. cerevisiae) (UniProt P25588)
T1 sequence: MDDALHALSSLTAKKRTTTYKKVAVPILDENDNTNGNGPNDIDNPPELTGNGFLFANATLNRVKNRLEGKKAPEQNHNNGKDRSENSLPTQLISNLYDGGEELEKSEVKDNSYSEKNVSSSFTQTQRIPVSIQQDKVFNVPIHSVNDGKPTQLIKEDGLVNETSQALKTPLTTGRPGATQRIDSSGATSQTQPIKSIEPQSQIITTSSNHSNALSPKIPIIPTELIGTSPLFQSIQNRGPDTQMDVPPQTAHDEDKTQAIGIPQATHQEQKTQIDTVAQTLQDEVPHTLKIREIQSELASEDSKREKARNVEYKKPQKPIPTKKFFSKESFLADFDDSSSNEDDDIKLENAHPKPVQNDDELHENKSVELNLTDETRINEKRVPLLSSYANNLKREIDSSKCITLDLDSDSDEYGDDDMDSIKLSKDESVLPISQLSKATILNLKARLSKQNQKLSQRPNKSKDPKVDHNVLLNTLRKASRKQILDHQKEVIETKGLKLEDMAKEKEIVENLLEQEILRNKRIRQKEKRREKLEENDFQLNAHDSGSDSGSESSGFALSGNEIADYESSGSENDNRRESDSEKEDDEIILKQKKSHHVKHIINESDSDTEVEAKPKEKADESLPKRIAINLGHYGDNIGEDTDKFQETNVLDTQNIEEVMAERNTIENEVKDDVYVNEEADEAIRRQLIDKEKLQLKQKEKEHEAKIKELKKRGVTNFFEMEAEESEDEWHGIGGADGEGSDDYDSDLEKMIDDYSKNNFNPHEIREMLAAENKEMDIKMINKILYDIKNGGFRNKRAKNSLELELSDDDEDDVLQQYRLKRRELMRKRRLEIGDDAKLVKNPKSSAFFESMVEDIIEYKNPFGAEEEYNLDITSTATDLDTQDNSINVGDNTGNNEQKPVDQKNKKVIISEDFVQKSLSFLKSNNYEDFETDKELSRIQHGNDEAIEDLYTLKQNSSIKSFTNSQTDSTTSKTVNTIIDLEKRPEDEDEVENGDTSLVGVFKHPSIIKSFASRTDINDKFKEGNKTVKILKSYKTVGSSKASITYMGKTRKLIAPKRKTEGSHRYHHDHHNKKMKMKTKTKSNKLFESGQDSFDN

Protein sequences, listed by entry. Tags and fused reporters are not part of them.
UniProt P21951: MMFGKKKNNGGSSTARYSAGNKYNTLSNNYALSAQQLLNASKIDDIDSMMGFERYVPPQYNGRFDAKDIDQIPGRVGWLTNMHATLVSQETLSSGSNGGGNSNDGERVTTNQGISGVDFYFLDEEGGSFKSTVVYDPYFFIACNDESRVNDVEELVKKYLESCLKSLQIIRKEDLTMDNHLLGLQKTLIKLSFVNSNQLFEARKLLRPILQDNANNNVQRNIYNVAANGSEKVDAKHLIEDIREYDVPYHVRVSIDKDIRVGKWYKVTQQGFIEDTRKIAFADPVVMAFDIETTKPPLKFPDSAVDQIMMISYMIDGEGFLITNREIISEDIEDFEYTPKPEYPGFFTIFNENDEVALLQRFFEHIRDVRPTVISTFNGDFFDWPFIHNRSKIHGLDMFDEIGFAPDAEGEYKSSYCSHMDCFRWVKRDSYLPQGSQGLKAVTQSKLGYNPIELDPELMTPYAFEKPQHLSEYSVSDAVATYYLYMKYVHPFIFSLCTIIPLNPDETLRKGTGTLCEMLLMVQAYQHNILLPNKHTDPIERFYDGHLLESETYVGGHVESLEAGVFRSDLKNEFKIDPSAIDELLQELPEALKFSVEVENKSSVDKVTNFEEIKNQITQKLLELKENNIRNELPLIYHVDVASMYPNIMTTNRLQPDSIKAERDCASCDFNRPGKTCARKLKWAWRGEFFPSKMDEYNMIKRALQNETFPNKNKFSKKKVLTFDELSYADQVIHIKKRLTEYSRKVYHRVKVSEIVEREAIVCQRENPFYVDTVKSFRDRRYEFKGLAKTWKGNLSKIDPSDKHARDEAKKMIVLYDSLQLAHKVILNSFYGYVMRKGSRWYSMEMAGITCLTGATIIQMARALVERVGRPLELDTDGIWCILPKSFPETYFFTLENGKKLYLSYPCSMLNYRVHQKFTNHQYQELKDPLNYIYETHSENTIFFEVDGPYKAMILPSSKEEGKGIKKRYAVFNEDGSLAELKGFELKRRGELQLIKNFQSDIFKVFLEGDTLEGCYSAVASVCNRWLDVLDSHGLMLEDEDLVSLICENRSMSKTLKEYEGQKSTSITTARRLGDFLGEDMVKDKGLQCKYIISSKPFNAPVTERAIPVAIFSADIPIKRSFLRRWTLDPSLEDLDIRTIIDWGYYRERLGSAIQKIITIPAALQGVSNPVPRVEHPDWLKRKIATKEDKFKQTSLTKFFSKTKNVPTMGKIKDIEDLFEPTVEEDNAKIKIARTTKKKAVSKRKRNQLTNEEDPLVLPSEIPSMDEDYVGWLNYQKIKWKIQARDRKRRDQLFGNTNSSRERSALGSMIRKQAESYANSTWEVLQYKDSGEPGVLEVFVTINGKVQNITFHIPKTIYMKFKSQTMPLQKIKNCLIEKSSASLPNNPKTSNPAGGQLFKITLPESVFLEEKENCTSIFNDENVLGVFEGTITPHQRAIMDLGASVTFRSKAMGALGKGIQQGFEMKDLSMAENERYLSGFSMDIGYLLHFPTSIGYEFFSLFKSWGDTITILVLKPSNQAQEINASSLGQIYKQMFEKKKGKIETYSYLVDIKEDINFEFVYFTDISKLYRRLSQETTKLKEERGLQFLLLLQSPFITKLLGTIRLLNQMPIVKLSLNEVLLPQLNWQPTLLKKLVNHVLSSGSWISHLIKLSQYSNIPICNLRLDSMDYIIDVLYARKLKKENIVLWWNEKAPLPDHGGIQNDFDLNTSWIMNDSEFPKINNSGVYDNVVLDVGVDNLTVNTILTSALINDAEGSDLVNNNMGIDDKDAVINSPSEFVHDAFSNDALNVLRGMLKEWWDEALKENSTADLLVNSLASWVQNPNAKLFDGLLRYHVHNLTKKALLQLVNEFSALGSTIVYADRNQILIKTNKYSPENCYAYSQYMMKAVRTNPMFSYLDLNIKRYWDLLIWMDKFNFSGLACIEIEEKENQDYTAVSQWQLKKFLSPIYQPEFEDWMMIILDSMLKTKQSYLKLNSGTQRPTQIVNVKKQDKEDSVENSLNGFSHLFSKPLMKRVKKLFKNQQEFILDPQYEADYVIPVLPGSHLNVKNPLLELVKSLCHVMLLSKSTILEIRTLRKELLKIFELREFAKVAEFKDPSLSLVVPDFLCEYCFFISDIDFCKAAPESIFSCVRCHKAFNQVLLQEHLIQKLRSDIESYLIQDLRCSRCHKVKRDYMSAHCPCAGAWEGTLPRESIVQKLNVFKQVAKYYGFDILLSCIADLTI
UniProt P15790: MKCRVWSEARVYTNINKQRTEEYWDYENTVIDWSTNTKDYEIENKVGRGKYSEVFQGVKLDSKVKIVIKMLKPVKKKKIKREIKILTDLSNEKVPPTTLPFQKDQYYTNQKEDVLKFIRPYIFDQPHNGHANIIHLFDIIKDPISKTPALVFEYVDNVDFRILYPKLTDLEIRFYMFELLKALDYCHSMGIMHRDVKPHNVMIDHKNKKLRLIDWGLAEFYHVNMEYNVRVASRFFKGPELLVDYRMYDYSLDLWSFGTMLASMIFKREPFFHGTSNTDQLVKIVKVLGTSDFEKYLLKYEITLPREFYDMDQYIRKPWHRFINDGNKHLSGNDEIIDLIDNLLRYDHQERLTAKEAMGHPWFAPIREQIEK
UniProt Q12158: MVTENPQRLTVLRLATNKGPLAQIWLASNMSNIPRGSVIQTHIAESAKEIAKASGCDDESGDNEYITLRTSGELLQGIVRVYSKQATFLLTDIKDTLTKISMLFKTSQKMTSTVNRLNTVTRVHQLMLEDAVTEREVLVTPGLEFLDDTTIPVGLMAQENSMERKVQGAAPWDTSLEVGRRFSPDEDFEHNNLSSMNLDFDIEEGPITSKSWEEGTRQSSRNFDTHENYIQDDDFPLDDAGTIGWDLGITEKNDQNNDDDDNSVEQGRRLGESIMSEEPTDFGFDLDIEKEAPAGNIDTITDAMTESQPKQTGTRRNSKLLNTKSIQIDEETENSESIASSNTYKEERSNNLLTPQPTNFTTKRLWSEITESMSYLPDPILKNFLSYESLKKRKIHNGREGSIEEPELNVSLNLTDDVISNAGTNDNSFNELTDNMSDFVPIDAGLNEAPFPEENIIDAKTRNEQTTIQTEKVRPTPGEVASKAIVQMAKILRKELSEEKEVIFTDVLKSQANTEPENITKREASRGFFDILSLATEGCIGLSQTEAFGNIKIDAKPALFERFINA
UniProt P15873: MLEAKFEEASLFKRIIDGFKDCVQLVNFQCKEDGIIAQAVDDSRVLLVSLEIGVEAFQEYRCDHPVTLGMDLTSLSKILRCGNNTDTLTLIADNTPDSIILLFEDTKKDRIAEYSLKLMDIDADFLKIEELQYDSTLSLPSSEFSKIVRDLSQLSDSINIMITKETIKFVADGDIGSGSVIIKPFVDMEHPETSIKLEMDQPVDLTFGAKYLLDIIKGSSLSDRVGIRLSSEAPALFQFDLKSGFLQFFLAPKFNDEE
UniProt P22202: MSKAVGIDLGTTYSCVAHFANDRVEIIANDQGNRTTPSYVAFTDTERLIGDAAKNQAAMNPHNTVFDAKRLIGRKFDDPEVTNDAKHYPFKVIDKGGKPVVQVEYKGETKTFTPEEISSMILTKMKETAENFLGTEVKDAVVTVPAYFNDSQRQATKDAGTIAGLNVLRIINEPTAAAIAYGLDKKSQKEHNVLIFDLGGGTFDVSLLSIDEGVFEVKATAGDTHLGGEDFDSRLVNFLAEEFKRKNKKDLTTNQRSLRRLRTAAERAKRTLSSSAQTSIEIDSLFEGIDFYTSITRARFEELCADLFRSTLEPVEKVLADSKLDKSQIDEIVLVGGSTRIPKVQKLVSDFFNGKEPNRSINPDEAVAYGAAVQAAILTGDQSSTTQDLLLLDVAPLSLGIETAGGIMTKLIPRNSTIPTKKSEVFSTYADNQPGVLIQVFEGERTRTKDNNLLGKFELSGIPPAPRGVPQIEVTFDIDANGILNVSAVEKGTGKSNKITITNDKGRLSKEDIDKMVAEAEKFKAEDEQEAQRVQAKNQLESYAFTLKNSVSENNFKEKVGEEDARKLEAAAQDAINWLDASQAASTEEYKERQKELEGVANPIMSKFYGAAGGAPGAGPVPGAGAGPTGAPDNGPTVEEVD
UniProt P43588: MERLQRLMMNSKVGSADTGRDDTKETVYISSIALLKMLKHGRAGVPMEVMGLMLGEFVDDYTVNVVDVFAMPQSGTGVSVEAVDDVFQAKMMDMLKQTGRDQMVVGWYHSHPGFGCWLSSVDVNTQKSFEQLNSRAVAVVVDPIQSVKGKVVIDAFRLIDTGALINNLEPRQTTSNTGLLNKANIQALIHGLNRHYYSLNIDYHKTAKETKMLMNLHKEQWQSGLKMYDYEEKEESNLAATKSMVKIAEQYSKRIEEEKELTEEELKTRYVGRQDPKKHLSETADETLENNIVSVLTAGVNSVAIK
UniProt Q00416: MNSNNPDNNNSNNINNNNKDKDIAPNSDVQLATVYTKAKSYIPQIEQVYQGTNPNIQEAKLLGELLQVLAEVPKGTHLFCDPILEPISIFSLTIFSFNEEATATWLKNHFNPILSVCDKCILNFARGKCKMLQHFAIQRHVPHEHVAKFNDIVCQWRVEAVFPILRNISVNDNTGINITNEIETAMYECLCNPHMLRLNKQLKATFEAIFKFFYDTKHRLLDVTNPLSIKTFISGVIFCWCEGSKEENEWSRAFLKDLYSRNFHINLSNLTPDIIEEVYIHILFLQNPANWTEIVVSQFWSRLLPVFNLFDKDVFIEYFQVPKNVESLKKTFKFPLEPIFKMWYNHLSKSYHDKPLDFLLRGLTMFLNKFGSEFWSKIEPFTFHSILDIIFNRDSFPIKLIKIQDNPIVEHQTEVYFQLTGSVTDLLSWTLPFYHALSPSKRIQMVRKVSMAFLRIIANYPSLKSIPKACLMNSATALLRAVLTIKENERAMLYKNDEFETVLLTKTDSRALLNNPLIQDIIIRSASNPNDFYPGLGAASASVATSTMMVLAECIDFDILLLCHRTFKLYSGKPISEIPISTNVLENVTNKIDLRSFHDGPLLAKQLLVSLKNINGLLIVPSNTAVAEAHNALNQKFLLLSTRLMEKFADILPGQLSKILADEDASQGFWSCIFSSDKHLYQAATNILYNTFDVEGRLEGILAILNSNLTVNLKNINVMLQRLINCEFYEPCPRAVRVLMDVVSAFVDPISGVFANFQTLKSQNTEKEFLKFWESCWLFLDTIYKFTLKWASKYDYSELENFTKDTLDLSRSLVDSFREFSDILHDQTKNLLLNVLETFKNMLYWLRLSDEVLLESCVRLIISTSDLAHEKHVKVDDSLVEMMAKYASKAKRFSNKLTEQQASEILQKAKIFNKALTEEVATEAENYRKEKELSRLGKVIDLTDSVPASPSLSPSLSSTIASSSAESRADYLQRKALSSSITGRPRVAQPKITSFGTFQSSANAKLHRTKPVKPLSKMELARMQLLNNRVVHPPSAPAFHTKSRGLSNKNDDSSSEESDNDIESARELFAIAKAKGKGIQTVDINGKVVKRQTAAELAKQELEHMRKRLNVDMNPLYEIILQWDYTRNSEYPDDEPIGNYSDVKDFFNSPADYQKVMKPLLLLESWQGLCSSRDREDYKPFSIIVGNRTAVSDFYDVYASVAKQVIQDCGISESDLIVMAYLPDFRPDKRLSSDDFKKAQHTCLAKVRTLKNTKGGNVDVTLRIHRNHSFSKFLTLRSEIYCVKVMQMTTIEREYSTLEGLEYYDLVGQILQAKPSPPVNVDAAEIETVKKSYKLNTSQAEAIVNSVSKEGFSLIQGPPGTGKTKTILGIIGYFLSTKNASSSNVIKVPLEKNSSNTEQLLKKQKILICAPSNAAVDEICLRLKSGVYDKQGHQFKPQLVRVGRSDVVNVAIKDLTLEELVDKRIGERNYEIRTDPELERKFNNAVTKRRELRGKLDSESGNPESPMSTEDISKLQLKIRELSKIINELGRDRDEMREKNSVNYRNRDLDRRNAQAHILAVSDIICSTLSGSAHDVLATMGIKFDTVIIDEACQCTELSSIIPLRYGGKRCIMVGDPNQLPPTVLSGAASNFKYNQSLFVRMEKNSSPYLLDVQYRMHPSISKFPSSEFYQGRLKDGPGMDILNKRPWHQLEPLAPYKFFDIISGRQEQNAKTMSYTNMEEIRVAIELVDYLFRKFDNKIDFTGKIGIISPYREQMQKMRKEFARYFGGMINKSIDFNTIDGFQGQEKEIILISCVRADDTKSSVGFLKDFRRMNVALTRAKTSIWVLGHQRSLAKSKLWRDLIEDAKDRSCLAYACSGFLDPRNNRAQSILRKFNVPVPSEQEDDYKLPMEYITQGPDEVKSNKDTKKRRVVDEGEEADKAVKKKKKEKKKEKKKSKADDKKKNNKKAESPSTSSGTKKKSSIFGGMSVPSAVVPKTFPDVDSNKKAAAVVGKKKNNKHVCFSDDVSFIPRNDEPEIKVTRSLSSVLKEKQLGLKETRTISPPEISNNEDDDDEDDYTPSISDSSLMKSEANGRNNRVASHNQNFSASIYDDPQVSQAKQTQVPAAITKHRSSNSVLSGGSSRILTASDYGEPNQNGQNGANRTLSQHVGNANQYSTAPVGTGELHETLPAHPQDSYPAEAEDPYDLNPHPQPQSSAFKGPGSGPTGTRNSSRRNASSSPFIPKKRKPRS

B1: Psf3 (protein, UniProt Q12146 1-194)
chain: MGYYDIDDVLADGTEFPCKFQYDIPGLGYLENNPGRPITKNTKLSLPLWLARILAIVGGDEALVDEEPVPFVELLPPDMFSTKVMNAIKTDPVALDLHSINSHFFSLAIKWIMLFSEKELANVVSELLLQRAQELNHHASSLSIDLNADSTGKNSANTNIATSTFLLKLEEMEKEIYKKSHESYKDTKRWMFKK
B2: Tof1 (protein, UniProt P53840 1-1238)
chain: MSADLQQGTTNAADFSLTVLRARIALLATAIGGPDYTSQIDPPPYKLGDDCLACLKDLKRWFKLVDDQQKRWDVAMAVAEYRILTDDLLPILIDWENKCSLAAKLAKNNPDHEEFRNKAYYDKIALNCLQLLVLMTWPLIVTEQSSSNQITLYGELKKHQLVYKKTILSMESGKVLRAAIRLALDVIKIDRLSRTPRDNMVLKLVLNFFRNVIAIEPGEFTINTKKSMPKKGITSIDTLPPNVSMDDISLNTVISSFHKNKVFGFLLTLTSSLSKEFDQDFINIPLLEIMFYFTKDVNQELLFPRQFETGTHSKVVNKNESSSANNIVTSAGFELSKLLQKEHQMRKNVIKHTSARHSRFGGLLSIQTPDKTRLTVSGSQALVDEKIALQKLDDSKKWNKRIIKKHQSVAAEGLPNSLLNSQTGKAIFFTESNGKHFKEFINNFIDSGFNILLHSVTNYFTTEQDRMVTLEQVEYLLFFAWFVKYQLLRSKIDNSADIKQVSEALKEVTFILVSSLLRSAYDLKNWTVTHAGMIAFNELLNLVSRTKAAQEEDSTDIEFIVSRLFSDERIQLLSNLPKIGSKYSLQFMKSCIELTHSVLKVLEQYSDDKTLVIEGKSRRQKKFNISEGDITKLIEEENVDRDEALDILTSSLRSIEVNFQKVQANYMTEPVIETYINFLERFRELEDDSIKKVFSFFHRVFVQAKEQALLFRFDLIILLREMLSPDGLDRMSRSRKYVSQFSDYFLARLKKRLKKSPAWFVGLLFPPLHNSEVGFYQRYGEYNVLNNESMYAAPASQFKPIPDEEALPPSILLDMKYGVLVSTLLDDGKTELLDQLLKHITHTLDIFKSWLTVNVNAGKETVNPPNEYFTLTGVLNNDPIFKDKDYRALLLLIGYSIPRKINEPCFLPGTVEVSDLTVSCELVKKYLSTPFETPNGLPSSSYLLRVRSEKDSFSHNEQDGWEGDDDYDYNDPYIVPDDQILSKSDAAYFKDLDNNASDKLKGTKFSKGIARSKKKDKRKRRKGEAKTNLPMFGDQDDERPQTVRERHGVFSKEFISDSEDDEDLMNPIFFENETYMRWLLDKNNGQLTEDRYIQFAKFAAERMNNGGVVTGDYTSLFGGSIPSIESIRATESSSFAPDKSLISLASHVASEMSIFDVNNNNNNQLSDDDVNSESRNSLGSSQPSNSQNMFQSEVYSRKESTKRSLEASAADESDEDEEAIRLFGKKSRVVLSQGDSDD
B3: Csm3 (protein, UniProt Q04659 1-317)
chain: MDQDFDSLLLGFNDSDSVQKDPTVPNGLDGSVVDPTIADPTAITARKRRPQVKLTAEKLLSDKGLPYVLKNAHKRIRISSKKNSYDNLSNIIQFYQLWAHELFPKAKFKDFMKICQTVGKTDPVLREYRVSLFRDEMGMSFDVGTRETGQDLERQSPMVEEHVTSAEERPIVADSFAQDKRNVNNVDYDNDEDDDIYHLSYRNRRGRVLDERGNNETVLNNVVPPKEDLDALLKTFRVQGPVGLEENEKKLLLGWLDAHRKMEKGSMTEEDVQLIQSLEEWEMNDIEGQHTHYDLLPGGDEFGVDQDELDAMKEMGF
B4: Psf2 (protein, UniProt P40359 1-213)
chain: MSLPAHLQQTFSPEEIQFIVENEPIKIFPRITTRQKIRGDDRGTGNHTRWQLITTDDKALNNMVAMRSTEVVLWIALLLKQQSKCSIVAPQWLTTKELDRKIQYEKTHPDRFSELPWNWLVLARILFNKAKDDFHDPIHELRGKIQDLREIRQIKVLKGLKYLNESHLQLDNLSLLEINELRPFITEIMDKLREIHTASLTAGTENDEEEFNI
B5: Cdc45 (protein, UniProt Q08032 1-650)
chain: MYYGISQFSEAYNKILRNSSSHSSCQLVIFVSCLNIDALCATKMLSLLFKKQLVQSQIVPIFGYSELRRHYSQLDDNINSLLLVGFGGVIDLEAFLEIDPQEYVIDTDEKSGEQSFRRDIYVLDAHRPWNLDNIFGSQIIQCFDDGTVDDTLGEQKEAYYKLLELDEESGDDELSGDENDNNGGDDEATDADEVTDEDEEDEDETISNKRGNSSIGPNDLSKRKQRKKQIHEYEGVLEEYYSQGTTVVNSISAQIYSLLSAIGETNLSNLWLNILGTTSLDIAYAQVYNRLYPLLQDEVKRLTPSSRNSVKTPDTLTLNIQPDYYLFLLRHSSLYDSFYYSNYVNAKLSLWNENGKKRLHKMFARMGIPLSTAQETWLYMDHSIKRELGIIFDKNLDRYGLQDIIRDGFVRTLGYRGSISASEFVEALTALLEVGNSTDKDSVKINNDNNDDTDGEEEEDNSAQKLTNLRKRWVSNFWLSWDALDDRKVELLNRGIQLAQDLQRAIFNTGVAILEKKLIKHLRIYRLCVLQDGPDLDLYRNPLTLLRLGNWLIECCAESEDKQLLPMVLASIDENTDTYLVAGLTPRYPRGLDTIHTKKPILNNFSMAFQQITAETDAKVRIDNFESSIIEIRREDLSPFLEKLTLSGLL

Here are results for 21 molecules from publication doi:10.1101/2021.09.16.460581.

These are yes or no findings as the source states them, for the method shown. In cells and extracts the contact can be indirect. These calls come from enrichment with a bait or labelling near it, and not all partners need be listed. Tags and fused reporters may be left off the sequences shown.

The assay deals with T1, Mrc1-YFP (S. cerevisiae). The assay can be described thus: affinity purification with mass spectrometry.
Regarding Pol2 (from UniProt P21951 1-2222), the binding result was “binds”.

Take Cka1 (from UniProt P15790 1-372): the binding result was “binds”.

In the case of Mcm3 (from UniProt P24279 1-971), the binding entry is recorded as “binds”.

On to Mcd1 (from UniProt Q12158 1-566), for which the binding entry is “binds”.

For Rad53 (from UniProt P22216 1-821), the binding entry is reported as “binds”.

“PCNA (Pol30) (from UniProt P15873 1-258)”: the binding result is “binds”.

As to Skp1 (from UniProt P52286 1-194), the binding result is reported as “binds”.

Mcm2 (from UniProt P29469 1-868): the binding result is reported as “binds”.

Regarding Ssa4 (from UniProt P22202 1-642), the binding entry is given as “binds”.

Turning to Cdc48 (from UniProt P25694 1-835), the binding result is on record as “binds”.

For the molecule Mcm6 (from UniProt P53091 1-1017), the binding result was “binds”.

Take Smc3 (from UniProt P47037 1-1230): the binding entry is listed as “binds”.

Regarding Rpn11 (from UniProt P43588 1-306), the binding result was “binds”.

As for Ydj1 (from UniProt P25491 1-409), the binding result is “binds”.

For Hsp42 (from UniProt Q12329 1-375), the binding result is on record as “binds”.

With Sen1 (from UniProt Q00416 1-2231), the binding result is “binds”.

Consider B1, for which the binding result is given as “binds”.

Regarding B2, the binding entry was “binds”.

With B3, the binding entry is given as “binds”.

In the case of B4, the binding entry is “binds”.

In the case of B5, the binding entry is “binds”.
